Reference: PubChem BioAssay AID1224829 (NIAID, 2016)

- Assay: 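Follow-up of TLR4-NF-kappaB regulators using six separate siRNAs for each gene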 (follow-up of hits)
- Cells: mouse RAW264.7 G9 macrophage reporter cells
- Knock-down reagent: single siRNA against mouse genes, 100 nM
- Time to read-out: 2 days of siRNA knock-down, then 40 min of LPS before fixing
- Treatment: LPS (Salmonella minnesota R595) at 10 ng/ml
- Read-out: 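Imaging of GFP-p65 after 40 min of LPS; nuclear over perinuclear ring intensity ratio, scaled to plate median and non-targeting control wells, given as z-score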
- Scale: p65 translocation z-score: higher = more nuclear NF-kappaB p65 after LPS
- Rule for the call: 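An siRNA is called active when the mean z-score of its two replicates is above 2 or below -2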
- Meaning of the calls: active = changed p65 translocation (either direction); inactive = no clear change
Shown is one part, drawn at random, of about 3,800 deposited reagents. 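Calls cover raised and lowered translocation; gene median uses one vendor's three siRNAs; qiagen siRNAs acted more weakly than ambion siRNAs.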 Reagents against one gene are numbered here. Further read-outs or replicates are left out here.

| Target gene | reagent | siRNA vendor or control pool | p65 translocation z-score, replicate mean | call |
| --- | --- | --- | --- | --- |
| Hspa12a (GeneID 73442) | 1 | ambion single siRNA | -1.58 | inactive |
| Hspa12a (GeneID 73442) | 2 | ambion single siRNA | -1.51 | inactive |
| Hspa12a (GeneID 73442) | 3 | ambion single siRNA | -5.25 | active |
| Hspa12a (GeneID 73442) | 4 | qiagen single siRNA | -0.396 | inactive |
| Hspa12a (GeneID 73442) | 5 | qiagen single siRNA | 3.12 | active |
| Hspa12a (GeneID 73442) | 6 | qiagen single siRNA | -5.09 | active |
| Phox2a (GeneID 11859) | 1 | ambion single siRNA | 5.47 | active |
| Phox2a (GeneID 11859) | 2 | ambion single siRNA | 1.37 | inactive |
| Phox2a (GeneID 11859) | 3 | ambion single siRNA | -1.24 | inactive |
| Phox2a (GeneID 11859) | 4 | qiagen single siRNA | -1.35 | inactive |
| Phox2a (GeneID 11859) | 5 | qiagen single siRNA | -1.75 | inactive |
| Phox2a (GeneID 11859) | 6 | qiagen single siRNA | -0.753 | inactive |
| Hoxc8 (GeneID 15426) | 1 | ambion single siRNA | -6.22 | active |
| Hoxc8 (GeneID 15426) | 2 | ambion single siRNA | -2.03 | active |
| Hoxc8 (GeneID 15426) | 3 | ambion single siRNA | -0.822 | inactive |
| Hoxc8 (GeneID 15426) | 4 | qiagen single siRNA | 1.21 | inactive |
| Hoxc8 (GeneID 15426) | 5 | qiagen single siRNA | 1.72 | inactive |
| Hoxc8 (GeneID 15426) | 6 | qiagen single siRNA | 1.41 | inactive |
| Egfl7 (GeneID 353156) | 1 | ambion single siRNA | -1 | inactive |
| Egfl7 (GeneID 353156) | 2 | ambion single siRNA | -1.07 | inactive |
| Egfl7 (GeneID 353156) | 3 | ambion single siRNA | -4.08 | active |
| Egfl7 (GeneID 353156) | 4 | qiagen single siRNA | 0.11 | inactive |
| Egfl7 (GeneID 353156) | 5 | qiagen single siRNA | -1.51 | inactive |
| Egfl7 (GeneID 353156) | 6 | qiagen single siRNA | -0.191 | inactive |
| Slc11a1 (GeneID 18173) | 1 | ambion single siRNA | -1.92 | inactive |
| Slc11a1 (GeneID 18173) | 2 | ambion single siRNA | -1.91 | inactive |
| Slc11a1 (GeneID 18173) | 3 | ambion single siRNA | -3.29 | active |
| Slc11a1 (GeneID 18173) | 4 | qiagen single siRNA | 2.65 | active |
| Slc11a1 (GeneID 18173) | 5 | qiagen single siRNA | 0.441 | inactive |
| Slc11a1 (GeneID 18173) | 6 | qiagen single siRNA | -0.14 | inactive |
| Tnfrsf17 (GeneID 21935) | 1 | ambion single siRNA | -0.852 | inactive |
| Tnfrsf17 (GeneID 21935) | 2 | ambion single siRNA | -0.639 | inactive |
| Tnfrsf17 (GeneID 21935) | 3 | ambion single siRNA | -1.03 | inactive |
| Tnfrsf17 (GeneID 21935) | 4 | qiagen single siRNA | -0.494 | inactive |
| Tnfrsf17 (GeneID 21935) | 5 | qiagen single siRNA | -1.87 | inactive |
| Tnfrsf17 (GeneID 21935) | 6 | qiagen single siRNA | 1.35 | inactive |
| Kras (GeneID 16653) | 1 | ambion single siRNA | 1.12 | inactive |
| Kras (GeneID 16653) | 2 | ambion single siRNA | -0.339 | inactive |
| Kras (GeneID 16653) | 3 | ambion single siRNA | -3.92 | active |
| Kras (GeneID 16653) | 4 | qiagen single siRNA | -0.0992 | inactive |
| Kras (GeneID 16653) | 5 | qiagen single siRNA | 1.25 | inactive |
| Kras (GeneID 16653) | 6 | qiagen single siRNA | -1.13 | inactive |
| Pold3 (GeneID 67967) | 1 | ambion single siRNA | -2 | active |
| Pold3 (GeneID 67967) | 2 | ambion single siRNA | -4.05 | active |
| Pold3 (GeneID 67967) | 3 | ambion single siRNA | -5.34 | active |
| Pold3 (GeneID 67967) | 4 | qiagen single siRNA | 0.74 | inactive |
| Pold3 (GeneID 67967) | 5 | qiagen single siRNA | 2.99 | active |
| Pold3 (GeneID 67967) | 6 | qiagen single siRNA | 0.331 | inactive |
| Capns1 (GeneID 12336) | 1 | ambion single siRNA | -1.79 | inactive |
| Capns1 (GeneID 12336) | 2 | ambion single siRNA | 2.45 | active |
| Capns1 (GeneID 12336) | 3 | ambion single siRNA | -6.16 | active |
| Capns1 (GeneID 12336) | 4 | qiagen single siRNA | 1.01 | inactive |
| Capns1 (GeneID 12336) | 5 | qiagen single siRNA | -0.671 | inactive |
| Capns1 (GeneID 12336) | 6 | qiagen single siRNA | -0.747 | inactive |

Reformatted: entries from further up.
{"Target gene": "Hspa12a (GeneID 73442)", "reagent": 4, "siRNA vendor or control pool": "qiagen single siRNA", "p65 translocation z-score, replicate mean": -0.396, "call": "inactive"}
{"Target gene": "Hspa12a (GeneID 73442)", "reagent": 5, "siRNA vendor or control pool": "qiagen single siRNA", "p65 translocation z-score, replicate mean": 3.12, "call": "active"}
{"Target gene": "Hspa12a (GeneID 73442)", "reagent": 6, "siRNA vendor or control pool": "qiagen single siRNA", "p65 translocation z-score, replicate mean": -5.09, "call": "active"}
{"Target gene": "Phox2a (GeneID 11859)", "reagent": 1, "siRNA vendor or control pool": "ambion single siRNA", "p65 translocation z-score, replicate mean": 5.47, "call": "active"}
{"Target gene": "Phox2a (GeneID 11859)", "reagent": 2, "siRNA vendor or control pool": "ambion single siRNA", "p65 translocation z-score, replicate mean": 1.37, "call": "inactive"}
{"Target gene": "Phox2a (GeneID 11859)", "reagent": 3, "siRNA vendor or control pool": "ambion single siRNA", "p65 translocation z-score, replicate mean": -1.24, "call": "inactive"}
